The other results are listed elsewhere or left out.
Tested on: diphosphomevalonate decarboxylase (Streptococcus pneumoniae D39)
Assay: S. pneumoniae DPM-DC inhibitors, primary screen, biochemical, PK/LDH-coupled NADH fluorescence (AID 556);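 further: kinetic rate of NADH fluorescence loss reporting ADP formed by the decarboxylase; 0% = full reaction rate with carrier and 100% = no-substrate background rate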
Conditions: purified DPM-DC, measured here: pilot screen trials, at 10 µM, stronger effect = higher value

SMILES	inhibition
CP(=S)(Nn1cnnc1)Oc1ccccc1 (stereo unspecified)	2%
CCOP1(=S)c2c(C)nn(CCC#N)c2N=C(c2ccccc2F)N1C (stereo unspecified)	0.5%
Cc1ccc(C)c(NP(C)(=O)Oc2ccccc2)c1 (stereo unspecified)	3%
CN(C)CCOC(=O)C(O)(c1ccccc1)C1CCCCC1 (stereo unspecified)	1%
CP(=O)(Nc1ccc2c(c1)OCCO2)Oc1ccccc1 (stereo unspecified)	3.5%
CP(=O)(Nc1ccccn1)Oc1ccccc1 (stereo unspecified)	0.5%

From PubChem BioAssay AID556 (SRMLSC, 2006)
